# Library screen at single concentrations

Data taken from ChEMBL document CHEMBL3988442, “University of Dundee, Small-Polar-MMV Screening Library” (2021).

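Whole-parasite assay of Trypanosoma brucei over 72 hours; the read-out is not stated. Tested at 30 µM. Direction is inferred from retests: higher values go with stronger inhibition. Values scatter widely below zero; nearly all retest evidence comes from the higher of the two concentrations used. About 64,000 compounds were tested under these conditions; 1.5% (about 940) showed 50% or more at least once.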

Values are the deposited “Percent Effect”, in %.
The controls that fix the scale are not given in the record; negative values are as filed.
Compounds were drawn at random from those tested, without regard to their results.

With N#Cc1ccc(N2CCCC(CO)(CCOc3ccccc3)C2)nc1 (stereo not drawn) the screen gave -38.44%. [H][C@]12CC[C@@H](N(C)c3cccnn3)[C@@]1([H])CN(Cc1ccccc1C(=O)O)C2 read 7.779%. Cc1csc(N2CCCN(Cc3noc(C)n3)CC2)n1 gave 11.84%. COCCCn1c(CN2CCCCO2)cnc1S(=O)(=O)C1CCCC1 read -7.367%.

Result for Cc1csc(N(C)C(=O)C2CC(=O)N(c3ccccc3F)C2)n1 (stereo not drawn) was -33.27%. With CC(C)(C)NC(=O)C1CSCN1S(=O)(=O)c1ccccc1F (stereo not drawn) the screen gave -3.007%. CC(C)C1CN(c2ncccc2Cl)CCC(=O)N1Cc1ccc(F)cc1 (stereo not drawn) gave -90.98%. With CCOCCCNC(=O)C(NC(=O)Cc1cccs1)c1ccccc1 (stereo not drawn) the screen gave -31.92%.

For CN(Cc1ccncc1)Cc1nccn1Cc1ccccc1 the result was -12.11%. With Cc1ccsc1CN1CCC(c2nnc(Cn3cccn3)n2C)CC1 the screen gave -12.59%. For CN(C)Cc1cc(=O)n2c(n1)CN(CC1CC1)CCC2 the result was -7.87%. Result for COc1ccc(F)c(NCc2cnn(C3CCS(=O)(=O)C3)c2)c1 (stereo not drawn) was -12.46%.

Result for Cc1nc(CC(=O)N2CCCC[C@H](N(C)C)C2)cs1 was 2.891%. For COc1ccc(C#N)cc1CSCCN1CCOCC1 the result was -19.05%. Result for CNC(=O)c1ccc(NC2CCN(CC(F)(F)F)C2=O)cc1Cl (stereo not drawn) was -9.983%. For COc1c(C)cnc(CN2CCOC(Cn3nc(C)nc3C)C2)c1C (stereo not drawn) the result was -27.13%.

CN(C(=O)C1CCCCC1)[C@@H]1CCC[C@@H](N2CCOCC2)[C@@H]1O read 9.037%. Result for Cc1ccc(=O)n(CC2(O)CCN(Cc3cc(C)c(O)c(C)c3)CC2)n1.O=C(O)CC(O)(CC(=O)O)C(=O)O was -17.49%. With Cc1nn(C)c2nc3c(c(C(=O)/N=c4\[nH]nc(C(C)C)s4)c12)CCC3 the screen gave -26.56%. Cc1cnn(CC2CN(Cc3nc(-c4ccccn4)no3)CCO2)c1 (stereo not drawn) read -19.2%.

Result for O=C(O)C(F)(F)F.O=C(O)C(F)(F)F.c1cncc(C2COC3(CCN(CC4CCOCC4)CC3)C2)c1 (stereo not drawn) was -63.15%. [H][C@@]12CS(=O)(=O)C[C@]1([H])N(Cc1cnn(-c3ccc(C)cc3)c1)CCN2C read -15.9%. CC(=O)N1N=C(COc2ccc(Cl)cc2)OC1c1ccccc1 (stereo not drawn) read -14.14%. COc1ccccc1CC1CCCN(CC(=O)N2CCOCC2)C1 (stereo not drawn) gave -3.574%.

For COc1coc(CN2CCCC(CCc3c(F)cccc3F)C2)cc1=O (stereo not drawn) the result was -17.02%. [H][C@@]12CCN(Cc3cccnc3)[C@@]1([H])CCN2C(=O)Cc1cccs1 read 0.4573%. Cc1cc(CNC(=O)N2CCc3ccccc32)on1 read 22.36%. [H][C@@]12CCN(Cc3nccs3)C[C@]1([H])[C@H](c1nc(C)no1)CCO2 read -29.48%.

CSc1cccc(CN(C)C(=O)Nc2nc(C)n(C)n2)c1 gave -34.67%. O=C(O)C(F)(F)F.O=C(O)C(F)(F)F.[H][C@@]12CN(Cc3ccncc3)C[C@]1([H])C(=O)N(c1cncnc1)C2 gave -44.3%. [H][C@]12CC[C@]([H])(CN(S(=O)(=O)N(C)C)C1)N(C(=O)c1cccc(C)n1)C2 read -8.996%. O=C(c1ccc2c(c1)CCCC2)N1CCn2ncnc2C1 read 5.292%.

CC(C)c1cc(C(=O)N2CCC3(CCc4ccccc4C(=O)N3)C2)no1 (stereo not drawn) read -5.141%. COc1ccc(CNC(=O)NCCCNS(C)(=O)=O)cc1OC read -21.06%. With Cn1nnc2c1C(COCC1CC1)CN(Cc1ccoc1)C2.O=C(O)C(F)(F)F (stereo not drawn) the screen gave 5.795%. CC(C)n1c2ccccc2c2c1cc(C(=O)NCCO)n2C(=O)N(C)C gave -3.877%.

CS(=O)(=O)N1CCC(C(=O)N2CCN(Cc3cccc(Cl)c3)CC2)CC1 gave 4.387%.